Amino acid sequences for entries named in this document (tags omitted).
UniProt Q16877: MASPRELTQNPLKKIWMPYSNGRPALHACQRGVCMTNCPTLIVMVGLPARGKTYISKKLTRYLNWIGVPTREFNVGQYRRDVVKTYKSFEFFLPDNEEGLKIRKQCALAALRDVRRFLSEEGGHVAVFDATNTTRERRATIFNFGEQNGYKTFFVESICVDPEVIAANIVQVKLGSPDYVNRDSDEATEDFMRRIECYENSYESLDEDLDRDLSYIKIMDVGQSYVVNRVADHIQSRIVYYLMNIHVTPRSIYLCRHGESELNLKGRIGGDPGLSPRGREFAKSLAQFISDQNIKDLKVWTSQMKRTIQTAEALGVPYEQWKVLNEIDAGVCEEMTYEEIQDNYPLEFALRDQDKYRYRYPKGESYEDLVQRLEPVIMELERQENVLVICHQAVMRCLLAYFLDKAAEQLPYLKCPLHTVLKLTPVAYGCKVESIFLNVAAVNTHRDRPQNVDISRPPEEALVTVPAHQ
UniProt O60725: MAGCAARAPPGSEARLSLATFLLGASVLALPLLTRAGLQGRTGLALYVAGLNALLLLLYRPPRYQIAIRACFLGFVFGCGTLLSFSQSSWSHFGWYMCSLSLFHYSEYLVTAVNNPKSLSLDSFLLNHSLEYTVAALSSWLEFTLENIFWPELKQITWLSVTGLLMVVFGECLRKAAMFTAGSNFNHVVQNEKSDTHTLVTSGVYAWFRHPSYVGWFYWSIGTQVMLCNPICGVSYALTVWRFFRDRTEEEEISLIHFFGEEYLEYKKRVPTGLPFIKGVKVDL

According to paper doi:10.1101/2020.03.23.004119:

Target: FLAG-tagged human PFKFB4 (human) (UniProt Q16877)
Assay: affinity purification with mass spectrometry

binding: binds
Substance: isoprenylcystein carboxyl methyl transferase (ICMT), endogenous (from UniProt O60725 1-284) (enzyme)

No constants are given. Whether binding was seen depends on the method and setting. In cells and extracts the contact can be indirect. These calls come from enrichment with a bait or labelling near it, and not all partners need be listed.
